From article PMC5587339 come the findings set out here.

Sequences of proteins named here, by UniProt entry; tags and fusion partners are left off. Residues count along the entry.
UniProt P35385: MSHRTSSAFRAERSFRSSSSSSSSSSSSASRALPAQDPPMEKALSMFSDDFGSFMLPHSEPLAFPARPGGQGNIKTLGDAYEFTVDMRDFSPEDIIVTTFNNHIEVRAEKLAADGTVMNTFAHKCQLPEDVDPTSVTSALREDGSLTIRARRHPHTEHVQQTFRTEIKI
UniProt P15116, residues 160-906: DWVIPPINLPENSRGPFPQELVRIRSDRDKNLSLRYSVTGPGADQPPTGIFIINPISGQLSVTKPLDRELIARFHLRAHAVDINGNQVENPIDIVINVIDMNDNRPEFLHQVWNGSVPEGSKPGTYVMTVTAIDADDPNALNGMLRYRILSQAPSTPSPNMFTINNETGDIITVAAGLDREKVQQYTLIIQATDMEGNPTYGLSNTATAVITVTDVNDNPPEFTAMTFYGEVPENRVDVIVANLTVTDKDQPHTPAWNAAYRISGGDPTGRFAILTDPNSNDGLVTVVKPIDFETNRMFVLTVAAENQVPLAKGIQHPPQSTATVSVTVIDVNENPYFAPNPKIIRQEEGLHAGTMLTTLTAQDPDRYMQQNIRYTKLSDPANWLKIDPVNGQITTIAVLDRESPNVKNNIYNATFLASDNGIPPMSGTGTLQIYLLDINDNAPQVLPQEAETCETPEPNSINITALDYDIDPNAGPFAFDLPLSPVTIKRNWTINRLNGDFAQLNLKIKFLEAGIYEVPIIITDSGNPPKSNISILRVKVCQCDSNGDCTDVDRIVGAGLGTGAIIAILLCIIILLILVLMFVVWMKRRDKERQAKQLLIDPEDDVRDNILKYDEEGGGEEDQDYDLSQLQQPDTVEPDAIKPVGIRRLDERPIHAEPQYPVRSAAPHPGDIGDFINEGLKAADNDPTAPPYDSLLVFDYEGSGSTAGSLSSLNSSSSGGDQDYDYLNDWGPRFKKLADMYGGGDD
UniProt P23242: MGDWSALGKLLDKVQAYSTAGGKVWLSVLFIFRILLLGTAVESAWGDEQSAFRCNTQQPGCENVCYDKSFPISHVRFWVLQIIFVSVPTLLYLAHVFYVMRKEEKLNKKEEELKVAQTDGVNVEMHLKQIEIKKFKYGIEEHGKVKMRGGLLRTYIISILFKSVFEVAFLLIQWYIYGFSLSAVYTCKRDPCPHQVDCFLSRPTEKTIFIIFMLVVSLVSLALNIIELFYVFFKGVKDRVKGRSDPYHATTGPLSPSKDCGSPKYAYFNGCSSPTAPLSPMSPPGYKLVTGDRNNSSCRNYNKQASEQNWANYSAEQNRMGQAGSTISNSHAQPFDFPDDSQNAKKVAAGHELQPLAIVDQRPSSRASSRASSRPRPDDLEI
UniProt Q8VHX6: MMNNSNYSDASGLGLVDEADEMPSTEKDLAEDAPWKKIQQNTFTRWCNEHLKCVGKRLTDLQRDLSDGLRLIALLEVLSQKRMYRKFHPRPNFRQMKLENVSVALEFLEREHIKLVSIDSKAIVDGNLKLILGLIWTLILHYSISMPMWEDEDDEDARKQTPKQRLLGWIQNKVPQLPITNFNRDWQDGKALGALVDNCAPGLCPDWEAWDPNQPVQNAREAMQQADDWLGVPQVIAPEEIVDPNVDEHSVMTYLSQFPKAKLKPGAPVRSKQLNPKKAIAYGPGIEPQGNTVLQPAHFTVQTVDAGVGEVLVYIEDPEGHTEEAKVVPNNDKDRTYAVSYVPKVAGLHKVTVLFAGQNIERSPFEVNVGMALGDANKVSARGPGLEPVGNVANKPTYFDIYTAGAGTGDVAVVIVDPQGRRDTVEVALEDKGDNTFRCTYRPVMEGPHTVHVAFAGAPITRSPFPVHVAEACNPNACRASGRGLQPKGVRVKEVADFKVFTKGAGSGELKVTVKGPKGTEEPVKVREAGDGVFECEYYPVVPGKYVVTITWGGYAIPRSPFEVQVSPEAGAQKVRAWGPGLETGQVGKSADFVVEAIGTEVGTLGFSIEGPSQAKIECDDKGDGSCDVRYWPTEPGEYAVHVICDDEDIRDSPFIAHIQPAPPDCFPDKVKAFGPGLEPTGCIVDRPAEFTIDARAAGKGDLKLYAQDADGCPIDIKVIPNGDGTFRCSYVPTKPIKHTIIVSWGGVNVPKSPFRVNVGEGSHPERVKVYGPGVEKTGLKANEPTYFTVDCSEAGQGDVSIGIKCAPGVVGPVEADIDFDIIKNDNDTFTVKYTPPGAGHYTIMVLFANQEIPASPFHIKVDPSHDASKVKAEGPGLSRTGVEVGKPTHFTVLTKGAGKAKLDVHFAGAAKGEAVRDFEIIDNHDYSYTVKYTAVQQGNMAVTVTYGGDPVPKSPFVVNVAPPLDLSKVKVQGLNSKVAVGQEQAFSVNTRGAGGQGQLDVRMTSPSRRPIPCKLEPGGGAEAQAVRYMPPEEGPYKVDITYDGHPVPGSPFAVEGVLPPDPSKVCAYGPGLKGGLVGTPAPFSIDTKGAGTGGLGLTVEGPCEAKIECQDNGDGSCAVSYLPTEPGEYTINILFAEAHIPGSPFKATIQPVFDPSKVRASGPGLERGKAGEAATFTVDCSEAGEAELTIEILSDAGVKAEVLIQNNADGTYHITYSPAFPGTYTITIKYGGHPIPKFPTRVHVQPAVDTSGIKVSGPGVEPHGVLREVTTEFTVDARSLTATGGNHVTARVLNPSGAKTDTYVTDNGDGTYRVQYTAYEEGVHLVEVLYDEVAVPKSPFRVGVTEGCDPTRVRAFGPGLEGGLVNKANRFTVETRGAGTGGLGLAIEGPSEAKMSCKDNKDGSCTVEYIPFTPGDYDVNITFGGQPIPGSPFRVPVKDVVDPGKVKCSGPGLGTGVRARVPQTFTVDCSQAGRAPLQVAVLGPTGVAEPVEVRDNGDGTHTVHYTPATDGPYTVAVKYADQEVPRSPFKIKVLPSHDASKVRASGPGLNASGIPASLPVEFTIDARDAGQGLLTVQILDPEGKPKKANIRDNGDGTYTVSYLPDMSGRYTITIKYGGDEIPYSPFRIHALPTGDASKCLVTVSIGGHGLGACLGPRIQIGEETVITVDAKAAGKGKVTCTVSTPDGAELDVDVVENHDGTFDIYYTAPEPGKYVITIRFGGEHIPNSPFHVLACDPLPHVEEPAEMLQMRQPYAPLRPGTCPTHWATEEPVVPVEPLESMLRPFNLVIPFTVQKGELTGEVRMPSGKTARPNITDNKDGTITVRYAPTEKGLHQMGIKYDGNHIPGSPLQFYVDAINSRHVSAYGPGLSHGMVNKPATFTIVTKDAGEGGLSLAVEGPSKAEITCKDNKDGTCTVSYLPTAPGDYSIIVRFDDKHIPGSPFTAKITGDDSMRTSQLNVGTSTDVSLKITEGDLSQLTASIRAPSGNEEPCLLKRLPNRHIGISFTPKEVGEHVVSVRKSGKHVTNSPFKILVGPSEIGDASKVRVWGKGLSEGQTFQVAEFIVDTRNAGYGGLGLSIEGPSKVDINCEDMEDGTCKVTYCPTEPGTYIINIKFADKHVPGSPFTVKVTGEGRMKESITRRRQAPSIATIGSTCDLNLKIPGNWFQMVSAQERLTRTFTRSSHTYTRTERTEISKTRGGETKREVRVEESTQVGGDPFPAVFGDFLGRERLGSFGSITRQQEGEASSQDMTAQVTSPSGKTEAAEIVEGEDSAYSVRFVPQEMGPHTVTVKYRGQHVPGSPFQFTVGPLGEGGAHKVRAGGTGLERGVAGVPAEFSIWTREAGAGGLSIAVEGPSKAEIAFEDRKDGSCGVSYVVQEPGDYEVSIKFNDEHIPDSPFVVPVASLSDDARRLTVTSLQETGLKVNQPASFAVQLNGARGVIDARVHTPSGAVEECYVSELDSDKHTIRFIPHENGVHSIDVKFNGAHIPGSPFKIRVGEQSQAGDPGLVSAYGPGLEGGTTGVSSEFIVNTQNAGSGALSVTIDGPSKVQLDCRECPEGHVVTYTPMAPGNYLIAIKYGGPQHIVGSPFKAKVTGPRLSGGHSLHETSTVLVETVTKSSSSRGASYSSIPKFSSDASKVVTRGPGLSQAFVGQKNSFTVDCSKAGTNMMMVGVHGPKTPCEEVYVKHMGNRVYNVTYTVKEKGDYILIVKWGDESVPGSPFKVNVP

These are yes or no findings as the source states them, for the method shown. Binding seen in cells or lysates may run through a third protein. Some results given as binding are weak or reduced against the parent protein; the word gives no strength.

This assay deals with HSPB7 (mouse (endogenous in mouse heart)) (UniProt P35385). Kind of assay: co-IP; 1 mg total protein of adult HSPB7Flox/Flox mouse heart lysate (Cell Lysis Buffer, protease inhibitors) incubated with anti-FLAG M2 affinity gel at 4°C overnight; beads washed with PBS; western blotting; wild-type heart as negative control.
“N-cadherin (from UniProt P15116 160-906)”: the binding result is on record as “no binding”.

With connexin 43 (from UniProt P23242 1-382), the binding entry is on record as “no binding”.

For filamin C (from UniProt Q8VHX6 1-2726), the binding result is reported as “binds”.
